From patent US10653655B2, “Composition for preventing or improving peripheral neuropathy” (AJINOMOTO CO., INC., priority 2014, dated 2020)
At least one structure is not confirmed: it was looked up by name or label, or the drawing left a doubt.

Experiments:
Assay type in all cases: in vivo
[1] = tested on: rat having hypersensitive pain induced by anticancer agent (Oxaliplatin); test: Von Frey test in rat having hypersensitive pain induced by anticancer agent (Experimental Example 1); settings: SD rat, Oxaliplatin 5 mg/kg i.p. 5 days; oral once per day 28 days; L-serine 10.5 mg/kg, EPA 300 mg/kg equivalent; 22 and 28 days; stimulation intensity 4 g, 8 g, 15 g
Method: 6-Week-old male SD rats were divided into 5 groups (1A group-1E group, N=6) based on the body weight, an anticancer agent (Oxaliplatin 5 mg/body weight kg) was intraperitoneally administered to 4 groups other than 1A group for 5 days, and saline was intraperitoneally administered to 1A group for 5 days. In addition, the following evaluation liquid was orally ingested once per day in the time zone of 4 to 5 hours after start of the light period for 28 days simultaneously from the start of the intraperitoneal administration. As eicosapentaenoic acid administered to 1D group, 1E group, fish oil corresponding to 300 mg/body weight kg (equivalent to 429 mg/body weight kg as n-3 fatty acid) was used. Evaluation Liquids for 1A Group-1E Group: • 1A group: distilled water • 1B group: distilled water • 1C group: L-serine 10.5 mg/body weight kg • 1D group: eicosapentaenoic acid 300 mg/body weight kg equivalent • 1E group: L-serine 10.5 mg/body weight kg+eicosapentaenoic acid 300 mg/body weight kg equivalent Von Frey test was performed at 22 days and 28 days after the start of the anticancer agent administration. […] The ratio (%) of the number of pain response relative to the number (10 times) of filament pressing was calculated at each stimulation intensity.

[2] = tested on: rat having hypersensitive pain induced by gonitis inducing agent (Zymosan); test: Von Frey test in rat having hypersensitive pain induced by gonitis inducing agent (Zymosan) (Experimental Example 2); settings: SD rat, Zymosan 2 mg right knee; oral once per day; L-serine 10.5 mg/kg, EPA 300 mg/kg equivalent; 7 and 14 days; right and left foot; 4 g, 8 g, 15 g
Method: (§1) 8-Week-old male SD rats were divided into 5 groups (2A group-2E group, N=7) based on the body weight, and 2 mg of a gonitis inducing agent (Zymosan) was administered to the right knee cartilage part in 4 groups other than 2A group. In addition, the following evaluation liquid was orally ingested once per day in the time zone of 4 to 5 hours after start of the light period for 21 days from the administration of the gonitis inducing agent to the right knee. As eicosapentaenoic acid administered to 2D group, 2E group, fish oil corresponding to 300 mg/body weight kg (equivalent to 429 mg/body weight kg as n-3 fatty acid) was used.
(§2) Evaluation Liquids for 2A Group-2E Group: • 2A group: distilled water • 2B group: distilled water • 2C group: L-serine 10.5 mg/body weight kg • 2D group: eicosapentaenoic acid 300 mg/body weight kg equivalent • 2E group: L-serine 10.5 mg/body weight kg+eicosapentaenoic acid 300 mg/body weight kg equivalent
Von Frey test was performed at 7 days and 14 days after the gonitis inducing agent administration. […] The ratio (%) of the number of pain response relative to the number (5 times) of filament pressing was calculated at each stimulation intensity.

[3] = tested on: rat having hypersensitive pain induced by gonitis inducing agent (Zymosan); test: Gastrocnemius weight of right and left foot in Zymosan gonitis rat (Experimental Example 2); settings: 21 days after Zymosan, rank among 2C-2E groups
Method: as §1, §2
After the completion of ingestion of the evaluation liquid (21 days after gonitis inducing agent administration), rats were fasted for 17 hours, and the body weight, gastrocnemius weight of the right foot and the left foot, liver weight and weight of fat around epididymis of each group were measured.

CC/C=C\C/C=C\C/C=C\C/C=C\C/C=C\CCCC(=O)O [eicosapentaenoic acid, reference compound]
number of pain response (Von Frey test) as compared to 1B group [1]: hardly changed
number of pain response (Von Frey test) as compared to 2B group [2]: hardly changed
gastrocnemius weight of the right foot, comparison in 2C group to 2E group ([3]; after 17 h fasting): next high
difference in the gastrocnemius weight of both feet, comparison among 2C group to 2E group [3]: next large
